# The other results are listed elsewhere or left out.
# B1: pTFF2 (Sus scrofa), P01359 (protein)
# chain: KPAACRCSRQDPKNRVNCGFPGITSDQCFTSGCCFDSQVPGVPWCFKPLPAQESEECVMEVSARKNCGYPGISPEDCAARNCCFSDTIPEVPWCFFPMSVEACHY
# What was measured:
# Assay in all cases: glycan array binding signal (z-score within array); higher = stronger binding
# Details in all cases: glycan notation: IUPAC condensed, linker removed
# Gal6S(b1-4)Glc = biological target: Gal6S(b1-4)Glc
# Summary of the method: (§1)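 From the Consortium for Functional Glycomics database, 3228 arrays were curated, keeping only those whose protein sequence was available. Binding is given as a within-array Z-score averaged across arrays sharing a protein sequence and across linkers. Negative Z-scores can be read as non-binding.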
# Gal6S(b1-4)Glc6S = biological target: Gal6S(b1-4)Glc6S
# Summary of the method: as §1
# Gal6S(b1-4)GlcNAc = biological target: Gal6S(b1-4)GlcNAc
# Summary of the method: as §1
# Gal6S(b1-4)GlcNAc6S = biological target: Gal6S(b1-4)GlcNAc6S
# Summary of the method: as §1
# GalNAc(a1-3)Gal = biological target: GalNAc(a1-3)Gal
# Summary of the method: as §1
# GalNAc(a1-3)GalNAc = biological target: GalNAc(a1-3)GalNAc
# Summary of the method: as §1
# [1] = biological target: GalNAc(a1-3)GalNAc(b1-3)Gal(a1-4)Gal(b1-4)Glc
# Summary of the method: as §1
# [2] = biological target: GalNAc(a1-3)GalNAc(b1-3)Gal(a1-4)Gal(b1-4)GlcNAc
# Summary of the method: as §1
# GalNAc(b1-3)Gal = biological target: GalNAc(b1-3)Gal
# Summary of the method: as §1
# [3] = biological target: GalNAc(b1-3)Gal(a1-4)Gal(b1-4)GlcNAc
# Summary of the method: as §1
# [4] = biological target: GalNAc(b1-3)Gal(a1-4)Gal(b1-4)GlcNAc(b1-3)Gal(b1-4)Glc
# Summary of the method: as §1
# [5] = biological target: GalNAc(b1-3)Gal(a1-6)Gal(b1-4)Glc
# Summary of the method: as §1
# GalNAc(b1-3)GalNAc = biological target: GalNAc(b1-3)GalNAc
# Summary of the method: as §1
# GalNAc(b1-3)GlcNAc = biological target: GalNAc(b1-3)GlcNAc
# Summary of the method: as §1
# GalNAc(b1-4)Gal(b1-4)Glc = biological target: GalNAc(b1-4)Gal(b1-4)Glc
# Summary of the method: as §1
# GalNAc(b1-4)GlcNAc = biological target: GalNAc(b1-4)GlcNAc
# Summary of the method: as §1
# [6] = biological target: GalNAc(b1-4)GlcNAc(b1-2)Man
# Summary of the method: as §1
# [7] = biological target: GalNAc(b1-4)GlcNAc(b1-2)Man(a1-3)[GalNAc(b1-4)GlcNAc(b1-2)Man(a1-6)]Man(b1-4)GlcNAc(b1-4)GlcNAc
# Summary of the method: as §1
# [8] = biological target: GalNAc(b1-4)GlcNAc(b1-3)GalNAc(b1-4)GlcNAc
# Summary of the method: as §1
# GalNAc(b1-4)GlcNAc6S = biological target: GalNAc(b1-4)GlcNAc6S
# Summary of the method: as §1
# GalNAc(b1-6)GalNAc = biological target: GalNAc(b1-6)GalNAc
# Summary of the method: as §1
# GalNAc3S(b1-4)GlcNAc = biological target: GalNAc3S(b1-4)GlcNAc
# Summary of the method: as §1
# GalNAc3S(b1-4)GlcNAc3S = biological target: GalNAc3S(b1-4)GlcNAc3S
# Summary of the method: as §1
# [9] = biological target: GalNAc3S(b1-4)[Fuc(a1-3)]GlcNAc
# Summary of the method: as §1
# GalNAc4S6S(b1-4)GlcNAc = biological target: GalNAc4S6S(b1-4)GlcNAc
# Summary of the method: as §1
# GalNAc6S(b1-4)GlcNAc = biological target: GalNAc6S(b1-4)GlcNAc
# Summary of the method: as §1
# Glc(a1-4)Glc = biological target: Glc(a1-4)Glc
# Summary of the method: as §1
# [10] = biological target: Glc(a1-4)Glc(a1-4)Glc(a1-4)Glc
# Summary of the method: as §1
# Glc(a1-6)Glc(a1-6)Glc = biological target: Glc(a1-6)Glc(a1-6)Glc
# Summary of the method: as §1
# [11] = biological target: Glc(a1-6)Glc(a1-6)Glc(a1-6)Glc
# Summary of the method: as §1
# Glc(b1-4)Glc = biological target: Glc(b1-4)Glc
# Summary of the method: as §1
# Glc(b1-6)Glc = biological target: Glc(b1-6)Glc
# Summary of the method: as §1
# GlcA(b1-3)Gal = biological target: GlcA(b1-3)Gal
# Summary of the method: as §1
# GlcA(b1-3)GlcNAc = biological target: GlcA(b1-3)GlcNAc
# Summary of the method: as §1
# GlcA(b1-6)Gal = biological target: GlcA(b1-6)Gal
# Summary of the method: as §1
# [12] = biological target: GlcA3S(b1-3)Gal(b1-4)GlcNAc(b1-2)Man
# Summary of the method: as §1
# [13] = biological target: GlcA3S(b1-3)Gal(b1-4)GlcNAc(b1-3)Gal(b1-4)Glc
# Summary of the method: as §1
# [14] = biological target: GlcNAc(a1-3)Gal(b1-4)GlcNAc
# Summary of the method: as §1
# [15] = biological target: GlcNAc(a1-4)Gal(b1-3)GlcNAc
# Summary of the method: as §1
# [16] = biological target: GlcNAc(a1-4)Gal(b1-4)GalNAc
# Summary of the method: as §1
# [17] = biological target: GlcNAc(a1-4)Gal(b1-4)GlcNAc
# Summary of the method: as §1
# [18] = biological target: GlcNAc(a1-4)Gal(b1-4)GlcNAc(b1-3)Gal(b1-4)Glc
# Summary of the method: as §1
# [19] = biological target: GlcNAc(a1-4)Gal(b1-4)GlcNAc(b1-3)Gal(b1-4)GlcNAc
# Summary of the method: as §1
# [20] = biological target: GlcNAc(a1-4)Gal(b1-4)GlcNAc(b1-3)Gal(b1-4)GlcNAc(b1-3)Gal(b1-4)GlcNAc
# Summary of the method: as §1
# [21] = biological target: GlcNAc(a1-4)Gal(b1-4)GlcNAc(b1-3)Gal(b1-4)[Fuc(a1-3)]GlcNAc(b1-3)Gal(b1-4)[Fuc(a1-3)]GlcNAc
# Summary of the method: as §1
binder,measurement,setting,value
B1,glycan array binding signal (z-score),Gal6S(b1-4)Glc,0.077
same,glycan array binding signal (z-score),Gal6S(b1-4)Glc6S,0.749
same,glycan array binding signal (z-score),Gal6S(b1-4)GlcNAc,-1.92
same,glycan array binding signal (z-score),Gal6S(b1-4)GlcNAc6S,0.285
same,glycan array binding signal (z-score),GalNAc(a1-3)Gal,1.15
same,glycan array binding signal (z-score),GalNAc(a1-3)GalNAc,-0.358
same,glycan array binding signal (z-score),[1],-0.118
same,glycan array binding signal (z-score),[2],-0.816
same,glycan array binding signal (z-score),GalNAc(b1-3)Gal,0.164
same,glycan array binding signal (z-score),[3],-0.4
same,glycan array binding signal (z-score),[4],-0.07
same,glycan array binding signal (z-score),[5],-1
same,glycan array binding signal (z-score),GalNAc(b1-3)GalNAc,0.308
same,glycan array binding signal (z-score),GalNAc(b1-3)GlcNAc,0.736
same,glycan array binding signal (z-score),GalNAc(b1-4)Gal(b1-4)Glc,4.38
same,glycan array binding signal (z-score),GalNAc(b1-4)GlcNAc,2.01
same,glycan array binding signal (z-score),[6],-1.25
same,glycan array binding signal (z-score),[7],0.559
same,glycan array binding signal (z-score),[8],-0.11
same,glycan array binding signal (z-score),GalNAc(b1-4)GlcNAc6S,1.59
same,glycan array binding signal (z-score),GalNAc(b1-6)GalNAc,-0.569
same,glycan array binding signal (z-score),GalNAc3S(b1-4)GlcNAc,2.64
same,glycan array binding signal (z-score),GalNAc3S(b1-4)GlcNAc3S,0.305
same,glycan array binding signal (z-score),[9],0.144
same,glycan array binding signal (z-score),GalNAc4S6S(b1-4)GlcNAc,-1.06
same,glycan array binding signal (z-score),GalNAc6S(b1-4)GlcNAc,-0.339
same,glycan array binding signal (z-score),Glc(a1-4)Glc,-0.022
same,glycan array binding signal (z-score),[10],0.391
same,glycan array binding signal (z-score),Glc(a1-6)Glc(a1-6)Glc,-1.06
same,glycan array binding signal (z-score),[11],-1.51
same,glycan array binding signal (z-score),Glc(b1-4)Glc,0.317
same,glycan array binding signal (z-score),Glc(b1-6)Glc,-1.34
same,glycan array binding signal (z-score),GlcA(b1-3)Gal,-0.315
same,glycan array binding signal (z-score),GlcA(b1-3)GlcNAc,1.53
same,glycan array binding signal (z-score),GlcA(b1-6)Gal,1.46
same,glycan array binding signal (z-score),[12],1.43
same,glycan array binding signal (z-score),[13],-1.9
same,glycan array binding signal (z-score),[14],-0.493
same,glycan array binding signal (z-score),[15],0.785
same,glycan array binding signal (z-score),[16],1.8
same,glycan array binding signal (z-score),[17],0.482
same,glycan array binding signal (z-score),[18],-1.14
same,glycan array binding signal (z-score),[19],-0.003
same,glycan array binding signal (z-score),[20],-0.612
same,glycan array binding signal (z-score),[21],1.22

# 2 entries drawn at random from the list so far:
binder,measurement,setting,value
B1,glycan array binding signal (z-score),GalNAc3S(b1-4)GlcNAc,2.64
same,glycan array binding signal (z-score),[6],-1.25
